Data as given in PubChem BioAssay AID1259405 (NCATS, 2018)

Test: 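Knock-downs that lift recombinant protein yield in hamster ovary cells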 (primary screen)
System: Chinese hamster CHO-K1 ovary cells with stable secreted eGFP expression
Reagent: single siRNA against mouse genes, 0.8 pmol siRNA per well (2 µl of 400 nM stock)
Time to read-out: 3 days
Measured: 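Per-well intracellular GFP measured by laser scanning cytometry, plus viability from ATP luminescence, each relative to plate median of non-targeting control wells, in %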
Scale: GFP, % of control: higher = more GFP per well, higher productivity; viability (ATP), % of control: higher = more viable cells (more ATP)
Call rule: 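a knock-down is called active if GFP reaches 120% or more of non-targeting control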
The deposit covers about 50,000 reagents; shown is an unselected part. About 4,000 of all reagents (8%) were called active. 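Mouse siRNA library applied to hamster cells; one well for each siRNA.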 Reagents against one gene are numbered here. Reagent sequences are not shown.

The opening 4 records as a preview:
target	siRNA no.	GFP, % of control	viability (ATP), % of control	outcome
Amz1 (archaelysin family metallopeptidase 1)	1	58.9	96	inactive
Amz1 (archaelysin family metallopeptidase 1)	2	81.2	93.4	inactive
Amz1 (archaelysin family metallopeptidase 1)	3	103	88.4	inactive
Vmn1r35 (vomeronasal 1 receptor 35)	1	88.8	47.3	inactive

Main list, repeating the preview:
target	siRNA no.	GFP, % of control	viability (ATP), % of control	outcome
Amz1 (archaelysin family metallopeptidase 1)	1	58.9	96	inactive
Amz1 (archaelysin family metallopeptidase 1)	2	81.2	93.4	inactive
Amz1 (archaelysin family metallopeptidase 1)	3	103	88.4	inactive
Vmn1r35 (vomeronasal 1 receptor 35)	1	88.8	47.3	inactive
Vmn1r35 (vomeronasal 1 receptor 35)	2	57.6	49.6	inactive
Vmn1r35 (vomeronasal 1 receptor 35)	3	80.2	96.8	inactive
Ctsr (cathepsin R)	1	110	102	inactive
Ctsr (cathepsin R)	2	46.3	61.3	inactive
Ctsr (cathepsin R)	3	85.9	81.4	inactive
Slc44a4	1	100	115	inactive
Slc44a4	2	60.6	56.4	inactive
Slc44a4	3	96.6	111	inactive
Mocs1 (molybdenum cofactor synthesis 1)	1	63.3	87.7	inactive
Mocs1 (molybdenum cofactor synthesis 1)	2	198	63.1	active
Mocs1 (molybdenum cofactor synthesis 1)	3	71.7	58.8	inactive
Slc19a3	1	165	137	active
Slc19a3	2	113	72.4	inactive
Slc19a3	3	86.7	93.6	inactive
Or12k5 (olfactory receptor family 12 subfamily K member 5)	1	149	62.1	active
Or12k5 (olfactory receptor family 12 subfamily K member 5)	2	77.2	43.3	inactive
Or12k5 (olfactory receptor family 12 subfamily K member 5)	3	48.9	62	inactive
Tspoap1 (TSPO associated protein 1)	1	59.6	40.7	inactive
Tspoap1 (TSPO associated protein 1)	2	78.5	89.2	inactive
Tspoap1 (TSPO associated protein 1)	3	118	102	inactive
Tmed10 (transmembrane p24 trafficking protein 10)	1	73.1	73.9	inactive
Tmed10 (transmembrane p24 trafficking protein 10)	2	99.9	107	inactive
Tmed10 (transmembrane p24 trafficking protein 10)	3	104	74.5	inactive
Krtap13-1 (keratin associated protein 13-1)	1	64	87.9	inactive
Krtap13-1 (keratin associated protein 13-1)	2	90.6	124	inactive
Krtap13-1 (keratin associated protein 13-1)	3	214	104	active
Speer4d (spermatogenesis associated glutamate (E)-rich protein 4D)	1	102	39.6	inactive
Speer4d (spermatogenesis associated glutamate (E)-rich protein 4D)	2	81.3	108	inactive
Speer4d (spermatogenesis associated glutamate (E)-rich protein 4D)	3	141	123	active
Pde1b (phosphodiesterase 1B, Ca2+-calmodulin dependent)	1	87.6	91.9	inactive
Pde1b (phosphodiesterase 1B, Ca2+-calmodulin dependent)	2	83.9	78.9	inactive
Pde1b (phosphodiesterase 1B, Ca2+-calmodulin dependent)	3	68.4	65.8	inactive
Pan3 (PAN3 poly(A) specific ribonuclease subunit)	1	73.3	88	inactive
Pan3 (PAN3 poly(A) specific ribonuclease subunit)	2	74.8	106	inactive
Obox6 (oocyte specific homeobox 6)	1	22.5	39.4	inactive
Obox6 (oocyte specific homeobox 6)	2	87.3	60.3	inactive
Obox6 (oocyte specific homeobox 6)	3	18.1	41.2	inactive
Rnf186 (ring finger protein 186)	1	122	56.2	active
Rnf186 (ring finger protein 186)	2	44.3	33.6	inactive
Rnf186 (ring finger protein 186)	3	41.8	58.3	inactive
Dmrta2	1	151	114	active
Dmrta2	2	81.4	76	inactive
Dmrta2	3	41.7	37	inactive
Or4a75 (olfactory receptor family 4 subfamily A member 75)	1	91.7	73.1	inactive
Or4a75 (olfactory receptor family 4 subfamily A member 75)	2	107	73.3	inactive
Or4a75 (olfactory receptor family 4 subfamily A member 75)	3	56.3	87.4	inactive
Slc6a18	1	31.4	25.3	inactive
Slc6a18	2	131	88.1	active
Slc6a18	3	121	77.6	active
Inpp1 (inositol polyphosphate-1-phosphatase)	1	71.9	40.3	inactive
Inpp1 (inositol polyphosphate-1-phosphatase)	2	39.9	75.4	inactive
Inpp1 (inositol polyphosphate-1-phosphatase)	3	94.4	80.8	inactive
Or7g20 (olfactory receptor family 7 subfamily G member 20)	1	59.5	78.1	inactive
Or7g20 (olfactory receptor family 7 subfamily G member 20)	2	101	65.9	inactive
Or7g20 (olfactory receptor family 7 subfamily G member 20)	3	68.3	77.2	inactive
Uck1 (uridine-cytidine kinase 1)	1	52	58.2	inactive
Uck1 (uridine-cytidine kinase 1)	2	57.3	82.3	inactive
Uck1 (uridine-cytidine kinase 1)	3	94.3	91.4	inactive
Adamtsl4 (ADAMTS-like 4)	1	70.6	83.3	inactive
Adamtsl4 (ADAMTS-like 4)	2	100	90.2	inactive
Adamtsl4 (ADAMTS-like 4)	3	62.3	53.5	inactive
Kcna1	1	117	64.3	inactive
Kcna1	2	84.8	39.8	inactive
Kcna1	3	78.4	84.1	inactive
Gpr4 (G protein-coupled receptor 4)	1	120	99.6	inactive
Gpr4 (G protein-coupled receptor 4)	2	97.8	74	inactive
Gpr4 (G protein-coupled receptor 4)	3	71.7	73.2	inactive
Prpf38a	1	58.9	70.4	inactive
Prpf38a	2	65.6	69.2	inactive
Prpf38a	3	87.4	128	inactive
Arf2 (ARF GTPase 2)	1	57.7	46.1	inactive
Arf2 (ARF GTPase 2)	2	58.9	39	inactive
Arf2 (ARF GTPase 2)	3	161	72.7	active
Foxh1 (forkhead box H1)	1	104	74.2	inactive
Foxh1 (forkhead box H1)	2	66.1	63.9	inactive
Mpdu1 (mannose-P-dolichol utilization defect 1)	1	111	76	inactive
Mpdu1 (mannose-P-dolichol utilization defect 1)	2	72.6	87.8	inactive
Mpdu1 (mannose-P-dolichol utilization defect 1)	3	43.9	42.3	inactive
Zfp975 (zinc finger protein 975)	1	74.8	67.5	inactive
Zfp975 (zinc finger protein 975)	2	104	105	inactive
Zfp975 (zinc finger protein 975)	3	75.1	81.7	inactive
